# Results are given in words; binding and its absence hold for the method and conditions named.
# Target: PFV RNase H-(Q591-N751) (prototype foamy virus (PFV)) (UniProt P14350)
# Experiment: 15N NMR spin relaxation (R1, R2, rotational correlation time); 1 mM and 0.4 mM 15N-labelled RNase H; 5 mM Na-phosphate pH 7.0, 100 mM NaCl, 0.5 mM DTT, 6 mM MgCl2, 10 % D2O; 298 K; 600 MHz; tc 12.4 ns, isotropic model; both purified
substance,measurement,value
PFV RNase H-(Q591-N751) (from UniProt P14350 591-751) (domain or fragment),binding,no binding (tested: 1 mM and 0.4 mM)
